Reference: paper PMC3283642
Results are given in words; binding and its absence hold for the method and conditions named. Binding seen in cells or lysates may run through a third protein. For some assays here: A result given as binding can be weak or reduced; the word gives no strength. Tags and fused reporters may be left off the sequences shown. One block for each molecule: values may come before it.

How the values were obtained:
[1] = molecular target: T1, MBP-PGL1 (rice (Oryza sativa L. cv Nipponbare)) (UniProt Q0DUR2); assay: pull-down; amylose resin-bound MBP fusion incubated with an equal amount of GST fusion; binding buffer 20 mM Tris-HCl pH 7.5, 100 mM NaCl, 1 mM EDTA, 1 mM DTT, 0.2% 2-mercaptoethanol, protease inhibitor; 4°C, 2 hours; five washes with 300 mM NaCl, 0.05% Tween-20; immunoblot with anti-GST
T1 sequence: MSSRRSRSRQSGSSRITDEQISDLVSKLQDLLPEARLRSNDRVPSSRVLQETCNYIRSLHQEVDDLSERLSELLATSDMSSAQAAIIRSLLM

[2] = molecular target: T2, GST-PGL1 (POSITIVE REGULATOR OF GRAIN LENGTH 1 fused to glutathione S-transferase) (rice (Oryza sativa L. cv Nipponbare)) (UniProt Q0DUR2); assay: pull-down; glutathione beads bound to GST-PGL1 incubated with equal amounts of Trx-Os12g; immunoblot with anti-His
T2 sequence: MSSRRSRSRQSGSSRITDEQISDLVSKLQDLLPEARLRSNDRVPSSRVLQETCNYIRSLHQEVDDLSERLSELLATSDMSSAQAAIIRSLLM

[3] = molecular target: MBP-APG (ANTAGONIST OF PGL1 fused to maltose binding protein) (rice (Oryza sativa L. cv Nipponbare)); assay: pull-down; amylose resin-bound MBP fusion incubated with an equal amount of GST fusion; binding buffer 20 mM Tris-HCl pH 7.5, 100 mM NaCl, 1 mM EDTA, 1 mM DTT, 0.2% 2-mercaptoethanol, protease inhibitor; 4°C, 2 hours; five washes with 300 mM NaCl, 0.05% Tween-20; immunoblot with anti-GST
[4] = molecular target: YC-APG (C-terminal half of EYFP fused to APG) (rice (Oryza sativa L. cv Nipponbare)); assay: split reporter; BiFC with halves of EYFP; Agrobacterium co-infiltration with p19 into N. benthamiana leaves, 48 hours, continuous light, 26°C; YFP seen by confocal or fluorescent microscope
[5] = molecular target: C-EYFP alone (C-terminal half of enhanced yellow fluorescent protein); assay: as above

- binding [3]: binds
B1: GST-PGL1 (POSITIVE REGULATOR OF GRAIN LENGTH 1 fused to glutathione S-transferase) (protein, UniProt Q0DUR2 1-92)
chain: MSSRRSRSRQSGSSRITDEQISDLVSKLQDLLPEARLRSNDRVPSSRVLQETCNYIRSLHQEVDDLSERLSELLATSDMSSAQAAIIRSLLM

- binding [4]: binds
- binding [5]: no binding
B2: YN-PGL1 (N-terminal half of EYFP fused to PGL1) (protein, UniProt Q0DUR2 1-92)
chain: MSSRRSRSRQSGSSRITDEQISDLVSKLQDLLPEARLRSNDRVPSSRVLQETCNYIRSLHQEVDDLSERLSELLATSDMSSAQAAIIRSLLM

The remaining lines, values behind:

Molecule: GST-Os04g (Os04g0618600 fused to glutathione S-transferase) (rice (Oryza sativa L. cv Nipponbare))
- binding [1]: no binding

Molecule: Trx-Os12g (Os12g0610200 fused to thioredoxin) (rice (Oryza sativa L. cv Nipponbare))
- binding [2]: no binding
